## Results of single-concentration screens

Data taken from ChEMBL document CHEMBL3988442, “University of Dundee, Small-Polar-MMV Screening Library” (2021).

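Whole-parasite assay of Trypanosoma brucei over 72 hours; the read-out is not stated. Concentration: 10 µM. The record gives no direction; compounds that gave an IC50 in retests scored well above the rest, so higher reads as stronger inhibition. Values scatter widely below zero; nearly all retest evidence comes from the higher of the two concentrations used. About 2,700 compounds were tested under these conditions; 0.51% (about 14) showed 50% or more at least once.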

Values are the deposited “Percent Effect”, in %. How 0% and 100% were set is not recorded. Most values in the screen are low, and negative values occur. The compounds are a random part of those screened.

{"smiles": "CS(=O)(=O)NC1CCCN(C(=O)NCc2ccoc2)C1", "stereo": "centres unmarked", "effect": -44.03}
{"smiles": "O=C(c1cccc2cccnc12)N1CCCC(n2ccnc2)C1", "stereo": "centres unmarked", "effect": -78.33}
{"smiles": "CC(C)Oc1ccc(C(=O)N2CCC(Nc3cccnn3)CC2)cn1", "effect": -46.79}
{"smiles": "COc1c(C2CCCN2C(=O)c2ccc(N(C)C)nn2)c(C)nn1C", "stereo": "centres unmarked", "effect": -36.01}
{"smiles": "O=C(CC(F)(F)F)Nc1cc(F)ccc1OCC1CCCO1", "stereo": "centres unmarked", "effect": -61.31}
{"smiles": "Cc1cc(C)n(CC2CCCN2C(=O)c2cncnc2C)n1", "stereo": "centres unmarked", "effect": -101.8}
{"smiles": "COc1ccc(COCC(O)CNC(=O)c2ccc(C)c(F)c2)cc1", "stereo": "centres unmarked", "effect": 1.362}
{"smiles": "CCCOc1ccc(CNc2cncc(-n3cccn3)n2)cc1", "effect": -24.99}
{"smiles": "CCC1CN(Cc2cccc(C(=O)N(C)C)c2)CCN1CCOC", "stereo": "centres unmarked", "effect": -26.04}
{"smiles": "CCc1n[nH]c(C2CN(C(=O)c3ccc4c(c3)COC4)CCO2)n1", "stereo": "centres unmarked", "effect": -65.8}
{"smiles": "CCN(Cc1cccc(F)c1)Cc1nc2c(cnn2C)c(=O)[nH]1", "effect": -76.51}
{"smiles": "O=C(CCN1CCc2c(ncn2C2CC2)C1)NC1CCCC1", "effect": -25.61}
{"smiles": "CC(=O)N(Cc1ncc(C(C)C)o1)C1CCN(Cc2ccno2)C1", "stereo": "centres unmarked", "effect": -44.34}
{"smiles": "Cc1ccccc1-c1cc(C(=O)N2CCCC(n3ccnc3C)C2)[nH]n1", "stereo": "centres unmarked", "effect": -12.76}
{"smiles": "O=C(c1cc(Cl)ccc1F)N1CCCC1Cn1cccn1", "stereo": "centres unmarked", "effect": -19.67}
{"smiles": "CCc1ccc(OCC(O)CN2CCN(CC)CC2)cc1", "stereo": "centres unmarked", "effect": -70.28}
{"smiles": "CNC(=O)NC(=O)C(C)N(C)CCCc1cc(-c2ccccc2)no1", "stereo": "centres unmarked", "effect": -36.74}
{"smiles": "CCN(CC)CC(=O)N1CCCC1Cn1cccn1", "stereo": "centres unmarked", "effect": -0.9949}
{"smiles": "O=C(O)c1cc(S(=O)(=O)Nc2cc(Cl)ccc2F)cc2c1OCCO2", "effect": -31.98}
{"smiles": "COc1cccc2cc(CNC(=O)N3CCC(C(N)=O)CC3)oc12", "effect": -66.64}
{"smiles": "Cc1cnn(CC2CCCN2Cc2noc(CC(C)C)n2)c1", "stereo": "centres unmarked", "effect": -34.27}
{"smiles": "CCc1noc(CNCC2CCCN2c2cccnn2)n1", "stereo": "centres unmarked", "effect": -36.15}
{"smiles": "CC(=O)c1ccc(S(=O)(=O)NCc2cccnc2N(C)C)cc1", "effect": -3.641}
{"smiles": "CCOCC(O)CN1CCN(C(=O)c2cc(Cl)ccc2F)CC1", "stereo": "centres unmarked", "effect": -25.89}
{"smiles": "CCn1ccnc1CN1CCCN(C(=O)Cc2ccc(C)s2)CC1", "effect": -28.05}
{"smiles": "CCn1cc(NC(=O)NCCc2ccc3c(c2)OCO3)cn1", "effect": -39.85}
{"smiles": "CN(C(=O)Cc1cccs1)C1CCN(c2ccccn2)CC1", "effect": -11.53}
{"smiles": "CN(C)CC1CN(Cc2ccc(-n3cccn3)cc2)CCO1", "stereo": "centres unmarked", "effect": -73.29}
{"smiles": "Cc1cnn(CC2CN(Cc3nc4ccccc4o3)CCO2)c1", "stereo": "centres unmarked", "effect": -50.01}
{"smiles": "O=C(Cc1csc(-c2ccco2)n1)N1CCN(c2ccccc2O)CC1", "effect": -5.969}
{"smiles": "Cc1ccc(-c2nc(CN3CCCC(C(=O)N(C)C)C3)cs2)o1", "stereo": "centres unmarked", "effect": -4.898}
{"smiles": "CC(Cn1cccn1)NCc1ccc(OCc2ccncc2)cc1", "stereo": "centres unmarked", "effect": -8.353}
{"smiles": "CC(NC(=O)NCCCn1cncn1)c1ccncc1", "stereo": "centres unmarked", "effect": -56.88}
{"smiles": "CC(=O)N1CCCC1C(=O)NCCOc1cccc(F)c1", "stereo": "centres unmarked", "effect": -44.69}
{"smiles": "CCN1CCC(CNC(=O)C2(c3ccc(F)cc3)CC2)C1", "stereo": "centres unmarked", "effect": -21.51}
{"smiles": "CCOc1cccc(CNCc2ccc(NC(=O)NC(C)C)cc2)c1", "effect": -60.8}
{"smiles": "CC(C)C(CNC(=O)NCc1cc[nH]n1)N1CCOCC1", "stereo": "centres unmarked", "effect": -66.79}
{"smiles": "O=C(CN1CCCC(Cn2cncn2)C1)NCCC1=CCCCC1", "stereo": "centres unmarked", "effect": -33.18}
{"smiles": "Cc1cnn(CC2CN(CC(=O)Nc3cc(C)on3)CCO2)c1", "stereo": "centres unmarked", "effect": -63.27}
{"smiles": "CCc1nc(C2CCCN2C(=O)CCCn2cncn2)no1", "stereo": "centres unmarked", "effect": -43.89}
{"smiles": "CC(C(=O)NCCOc1ccc2c(c1)CCC2)n1cncn1", "stereo": "centres unmarked", "effect": -40.99}
{"smiles": "CCNc1cc2c(nn1)CCN(C(=O)c1cc(C)no1)C2", "effect": -15.88}
{"smiles": "COCCCNC(=O)CN(C)C(=O)c1cc(Cl)ccc1O", "effect": -33.75}
{"smiles": "COCc1nc(C(=O)N2CCCC2c2cccc(C)c2)cs1", "stereo": "centres unmarked", "effect": -19.08}
{"smiles": "Cc1nn(Cc2ccccc2)c(C)c1CNC1CCc2ncnn2C1", "stereo": "centres unmarked", "effect": -50.67}
{"smiles": "Cc1nc(C)n(C2CCCN(C(=O)c3ccc(OC(C)C)nc3)C2)n1", "stereo": "centres unmarked", "effect": -48.05}

The last 3 entries again:

For COCc1nc(C(=O)N2CCCC2c2cccc(C)c2)cs1 (centres unmarked) the result was -19.08%.
For Cc1nn(Cc2ccccc2)c(C)c1CNC1CCc2ncnn2C1 (centres unmarked) the result was -50.67%.
For Cc1nc(C)n(C2CCCN(C(=O)c3ccc(OC(C)C)nc3)C2)n1 (centres unmarked) the result was -48.05%.